Binding data for six molecules are collected here from paper PMC10828200.

Results are given in words; binding and its absence hold for the method and conditions named. Binding seen in cells or lysates may run through a third protein. Some entries that bind do so weakly or less than the wild type. Where a sequence is shown, tags or fusion partners need not be part of it.

Assay [1] addresses T1, UBP14-cYFP (UBIQUITIN-SPECIFIC PROTEASE14 fused to the C-terminal fluorescent protein fragment) (Arabidopsis thaliana) (UniProt Q8L6Y1).
T1 sequence: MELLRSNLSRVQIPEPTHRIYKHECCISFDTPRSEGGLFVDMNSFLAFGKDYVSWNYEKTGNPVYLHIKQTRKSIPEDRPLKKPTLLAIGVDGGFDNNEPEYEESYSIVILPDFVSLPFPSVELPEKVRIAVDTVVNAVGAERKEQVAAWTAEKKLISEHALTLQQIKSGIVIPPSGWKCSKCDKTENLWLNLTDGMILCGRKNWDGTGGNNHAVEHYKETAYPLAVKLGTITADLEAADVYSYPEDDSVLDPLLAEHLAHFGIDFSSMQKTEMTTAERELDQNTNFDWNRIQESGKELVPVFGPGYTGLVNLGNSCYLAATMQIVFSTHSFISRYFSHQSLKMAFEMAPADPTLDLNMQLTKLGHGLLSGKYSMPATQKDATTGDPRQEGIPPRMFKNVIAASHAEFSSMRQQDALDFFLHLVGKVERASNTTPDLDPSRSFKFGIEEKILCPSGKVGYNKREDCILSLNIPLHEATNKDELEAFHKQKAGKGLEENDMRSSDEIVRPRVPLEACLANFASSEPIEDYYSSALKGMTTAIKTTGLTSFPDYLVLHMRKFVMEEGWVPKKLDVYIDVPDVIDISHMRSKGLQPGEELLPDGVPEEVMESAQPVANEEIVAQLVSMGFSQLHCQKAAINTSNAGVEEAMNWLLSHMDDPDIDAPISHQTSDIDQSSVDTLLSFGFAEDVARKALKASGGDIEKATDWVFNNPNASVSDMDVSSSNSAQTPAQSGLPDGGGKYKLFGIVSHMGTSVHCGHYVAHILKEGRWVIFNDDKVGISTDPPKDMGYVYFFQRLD
As to the kind of experiment: split reporter; BiFC; constructs transiently coexpressed in Arabidopsis leaf mesophyll protoplasts, 12 to 16 h; YFP fluorescence by confocal microscopy.

Assay [2] concerns the target T2, GST-UBP14 (Arabidopsis thaliana) (UniProt Q8L6Y1).
T2 sequence: T1 sequence
Kind of assay: pull-down; GST pull-down; GST-UBP14 and His-MAC3A/B from sonicated E. coli BL21 (DE3) incubated with glutathione sepharose beads at 4°C for 1 h in TGH buffer (50 mM HEPES pH 7.5, 150 mM NaCl, 1% Triton X-100); immunoblot with anti-His and anti-GST.

For assay [3], the target named is T3, UBP14-GFP (Arabidopsis thaliana) (UniProt Q8L6Y1).
T3 sequence: T1 sequence
Kind of assay: co-IP; transient coexpression in N. benthamiana leaves; total proteins incubated with GFP-Trap-A agarose beads 3 h at 4°C; wash 250 mM NaCl, 0.1% NP-40; immunoblot with anti-GFP and anti-HA.

B1: MAC3A-nYFP (MOS4-ASSOCIATED COMPLEX 3A fused to the N-terminal fragment of yellow fluorescent protein) (protein, UniProt Q94BR4 1-523)
chain: MNCAISGEVPEEPVVSKKSGLLYEKRLIQTHISDYGKCPVTGEPHTLDDIVPIKTGKIVKPKPLHTASIPGLLGTFQTEWDSLMLSNFALEQQLHTARQELSHALYQHDAACRVIARLKKERDESRQLLAEAERQLPAAPEVATSNAALSNGKRGIDDGEQGPNAKKMRLGISAEVITELTDCNAALSQQRKKRQIPKTLASVDALEKFTQLSSHPLHKTNKPGIFSMDILHSKDVIATGGIDTTAVLFDRPSGQILSTLTGHSKKVTSIKFVGDTDLVLTASSDKTVRIWGCSEDGNYTSRHTLKDHSAEVRAVTVHATNKYFVSASLDSTWCFYDLSSGLCLAQVTDASENDVNYTAAAFHPDGLILGTGTAQSIVKIWDVKSQANVAKFGGHNGEITSISFSENGYFLATAALDGVRLWDLRKLKNFRTFDFPDANSVEFDHSGSYLGIAASDIRVFQAASVKAEWNPIKTLPDLSGTGKATSVKFGLDSKYIAVGSMDRNLRIFGLPDDDNTEDSAQDS
As for B1, the binding result in assay [1] was “binds”.

B2: His-MAC3A (protein, UniProt Q94BR4 1-523)
chain: B1 chain
Take B2: the binding result in assay [2] is listed as “binds”.

B3: MAC3A-HA (protein, UniProt Q94BR4 1-523)
chain: B1 chain
Regarding B3, the binding entry in assay [3] is on record as “binds”.

B4: MAC3B-nYFP (MOS4-ASSOCIATED COMPLEX 3B fused to the N-terminal fragment of yellow fluorescent protein) (protein, UniProt O22785 1-525)
chain: MNCAISGEVPVEPVVSTKSGLLFERRLIERHISDYGKCPVTGEPLTIDDIVPIKTGEIIKPKTLHTASIPGLLGTFQNEWDGLMLSNFALEQQLHTARQELSHALYQHDSACRVIARLKKERDEARQLLAEVERHIPAAPEAVTANAALSNGKRAAVDEELGPDAKKLCPGISAEIITELTDCNAALSQKRKKRQIPQTLASIDTLERFTQLSSHPLHKTNKPGICSMDILHSKDVIATGGVDATAVLFDRPSGQILSTLTGHSKKVTSVKFVGDSDLVLTASADKTVRIWRNPGDGNYACGYTLNDHSAEVRAVTVHPTNKYFVSASLDGTWCFYDLSSGSCLAQVSDDSKNVDYTAAAFHPDGLILGTGTSQSVVKIWDVKSQANVAKFDGHTGEVTAISFSENGYFLATAAEDGVRLWDLRKLRNFKSFLSADANSVEFDPSGSYLGIAASDIKVYQTASVKAEWNLIKTLPDLSGTGKATCVKFGSDAQYVAVGSMDRNLRIFGLPGDEKANVDDDSAQDS
For the molecule B4, the binding entry in assay [1] is “binds”.

B5: MAC3B-HA (protein, UniProt O22785 1-525)
chain: B4 chain
For B5, the binding result in assay [3] is “binds”.

B6: His-MAC3B (protein, UniProt O22785 1-525)
chain: B4 chain
Regarding B6, the binding result in assay [2] is on record as “binds”.
